No constants are given. Whether binding was seen depends on the method and setting. Some binding calls cover weakened binding; strength is not graded here.
Assays:
[1] = target: 癌胚抗原 (CEA) (UniProt P06731); assay: double-antibody sandwich detection of CEA; detection antibody
[2] = target: 癌胚抗原 (CEA) (UniProt P06731); assay: double-antibody sandwich, magnetic bead chemiluminescence; detection antibody

Protein sequences, listed by entry. Tags and fused reporters are not part of them. Residues count along the entry.
UniProt P06731, residues 35-685: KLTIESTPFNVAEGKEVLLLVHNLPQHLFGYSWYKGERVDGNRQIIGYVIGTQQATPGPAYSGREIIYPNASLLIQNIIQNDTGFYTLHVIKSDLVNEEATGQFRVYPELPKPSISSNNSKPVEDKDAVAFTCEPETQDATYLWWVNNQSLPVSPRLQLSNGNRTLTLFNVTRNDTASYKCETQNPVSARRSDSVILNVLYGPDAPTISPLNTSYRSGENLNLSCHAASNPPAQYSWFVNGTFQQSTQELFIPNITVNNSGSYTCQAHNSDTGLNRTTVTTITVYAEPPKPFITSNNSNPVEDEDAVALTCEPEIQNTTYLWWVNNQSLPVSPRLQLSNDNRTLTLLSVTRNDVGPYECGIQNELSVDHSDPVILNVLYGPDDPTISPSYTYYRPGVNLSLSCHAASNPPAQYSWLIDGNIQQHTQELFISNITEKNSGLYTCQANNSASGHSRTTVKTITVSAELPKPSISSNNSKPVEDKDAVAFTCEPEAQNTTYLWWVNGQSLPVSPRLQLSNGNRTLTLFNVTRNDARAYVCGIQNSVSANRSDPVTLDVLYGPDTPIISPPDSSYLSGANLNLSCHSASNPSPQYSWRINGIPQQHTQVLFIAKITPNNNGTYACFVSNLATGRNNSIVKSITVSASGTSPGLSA

B1: 2D5-HAP (protein, human, not shown: small tags and cut ends; large carriers)
chain: VQLQESGGGLVQAGGSLRLSCVASGRTFSSHPMGWFRQAPGKEREFVAGISWSGGSTHYADSVKGRFTISRDTAKNTVYLQMNSLKPEDTAVYYCNAALSERTPIATMPSQYDYWGQGTQVTVSSHHHHHH
- binding [1]: binds
- binding [2]: binds

— patent publication CN111004328A
